Data as given in PubChem BioAssay AID504834 (National Center for Advancing Translational Sciences (NCATS), 2011).
Out of some 320,000 compounds screened, about 22,000 (6.9%) were called active. Inconclusive results, whose numbers are uncertain, are shown with a selection of clear calls. Calls come from the whole dose curve; as a rule, active = well fitted inhibition curve with a large enough effect; inconclusive = small, poorly fitted or top-dose-only effect, or another doubt; inactive = no such curve, though single readings can be large or run the other way. Where the call is inconclusive, the potency comes from a doubtful curve fit.

Assay: Primary qHTS for delayed death inhibitors of the malarial parasite plastid, 96 hour incubation
Conditions: P. falciparum luciferase reporter growth; series mostly up to 28.7 µM
How it was run: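 Luminescence readout: decreased luciferase signal marks inhibited growth of reporter-expressing P. falciparum in infected red cells (2% hematocrit, 0.05% parasitemia final), exposed to compound two generations (96 h, 37 C, 5% CO2).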
Potency is the fitted concentration of half-maximal effect.

Row | SMILES | Potency
1 | c1cc2c(cc1C1CCCCC1)c1c3n2CCN=C3CCC1 | inconclusive: 11.7 µM [inhibitor, single point]
2 | O=C(O)CCCC(=O)N1CCN(c2cccc(Cl)c2)CC1 | inconclusive: 9.28 µM [inhibitor, single point]
3 | CC(C)Cc1nnc(NC(=O)CN2C(=O)NC3(CC(C)CC(C)(C)C3)C2=O)s1 (stereo not drawn) | active: 16.5 µM
4 | Cc1c(NS(=O)(=O)c2ccc(C(=O)NCc3ccc(F)cc3)cc2)c(=O)n(-c2ccccc2)n1C | inconclusive: 11.7 µM [inhibitor, single point]
5 | CC(C)(C)c1cc(NC(=O)c2cccnc2)no1 | inactive
6 | CCC(=O)N1CCN(c2ccc(Cl)cc2NC(=O)Cc2ccc(Cl)cc2)CC1 | active: 13.1 µM
7 | COC(=O)[C@@H]1C[C@@]2(O)[C@@H](O)[C@@H](O)[C@@H](O)C[C@H]2N1Cc1cc(OC)cc(OC)c1 | inactive
8 | Cc1cc(C)c(C(=O)C(C)OC(=O)c2ccc(Cl)nc2)cc1C (stereo not drawn) | inactive
9 | O=C(N/N=C\c1cc(Cl)ccc1O)c1ccc(S(=O)(=O)N2CCCCC2)cc1 | active: 2.94 µM
10 | CCOC(=O)CC(=O)CSc1ncnc2c1nnn2-c1ccccc1 | inconclusive: 10.4 µM [inhibitor, partial curve, poor fit]
11 | COc1ccccc1-c1c(C)nn2c(N3CCN(c4ccccc4OC)CC3)cc(C)nc12 | inconclusive: 1.65 µM [inhibitor, partial curve, poor fit]
12 | Cc1ccc(C)c(NC(=O)COC(=O)c2ccc3c(c2)OCCO3)c1 | inconclusive: 2.33 µM [inhibitor, full curve]
13 | CCOC(=O)N1CCC(N2CCCC(C(=O)c3ccccc3OC)C2)CC1 (stereo not drawn) | inconclusive: 5.22 µM [inhibitor, partial curve]
14 | NC(=O)C(C(=O)/C=C/c1ccc(Cl)cc1)=C1SCCS1 | active: 8.28 µM
15 | CCOC(=O)C1CCN(S(=O)(=O)c2c(Cl)ccc3nonc23)CC1 | active: 2.33 µM
16 | C/C(=N/NC(=O)CSc1nc2ccccc2n1C)c1ccco1 | inconclusive: 9.28 µM [inhibitor, partial curve, poor fit]
17 | O=C(NCc1cccnc1)NC1(C(F)(F)F)Oc2ccc(Cl)cc2O1 (stereo not drawn) | inconclusive: 10.4 µM [inhibitor, single point]
18 | CCCCN=C1NC(=O)C(CC(=O)NCCc2ccc(OC)cc2)S1 (stereo not drawn) | inconclusive: 10.4 µM [inhibitor, single point]
19 | CCN(CC)c1ccc(-c2n[nH]c(=S)n2-c2ccccc2)cc1 | inconclusive: 4.15 µM [inhibitor, full curve, poor fit]
20 | CCNc1nc(NC(C)(C)C)nc(N2CCCC2)n1 | inactive
21 | CC(C)(C)C1CCC(OC(=O)CCC(=O)Nc2ccccc2)CC1 (stereo not drawn) | inconclusive: 10.4 µM [inhibitor, single point]
22 | Nc1cc(Cl)ccc1Nc1ccncc1 | inconclusive: 0.657 µM [inhibitor, full curve, poor fit]

Excerpt, compounds 5–6
Row | SMILES | Potency
5 | CC(C)(C)c1cc(NC(=O)c2cccnc2)no1 | inactive
6 | CCC(=O)N1CCN(c2ccc(Cl)cc2NC(=O)Cc2ccc(Cl)cc2)CC1 | active: 13.1 µM

(more compounds)

Row | SMILES | Potency
23 | NC(=O)CC(NC(=O)c1ccccc1)c1ccc(NCCc2ccc(Cl)cc2)c([N+](=O)[O-])c1 (stereo not drawn) | inconclusive: 9.28 µM [inhibitor, single point]
24 | CCOc1ccc(C(=O)Nc2ccc(NC(=S)NC(=O)CC)cc2)cc1Cl | inconclusive: 13.1 µM [inhibitor, single point]
25 | COC(=O)C1=C(c2ccc(C(C)=O)cc2)C[C@@H]2CC[C@H]1N2C(=O)NCc1ccco1 | inconclusive: 16.5 µM [inhibitor, single point]
26 | CCCCSCCCNC(=O)c1cn(C)c2ccc(S(=O)(=O)N3CCCC3)cc2c1=O | active: 10.4 µM
27 | Cc1ccc(Nc2nc(N3CCOCC3)nc(N3CCOCC3)n2)cc1 | inconclusive: 9.28 µM [inhibitor, partial curve, poor fit]
28 | CCc1ccc(CN2CCC(n3nccc3NC(=O)c3ccccc3Cl)CC2)cc1 | inconclusive: 4.65 µM [inhibitor, partial curve]
29 | CC1CC(C)CN(CCCNC(=O)CN2C(=O)c3cccnc3Oc3ccc(Cl)cc32)C1 (stereo not drawn) | inconclusive: 14.7 µM [inhibitor, partial curve, poor fit]
30 | CCOc1ccc(S(=O)(=O)N2CCC(C(=O)OCc3cccc(OC)c3OC)CC2)cc1 | inconclusive: 1.17 µM [inhibitor, partial curve, poor fit]
31 | COc1ccc(N2CCN(CCNC(=O)Nc3ccc(Cl)cc3)CC2)cc1 | inconclusive: 14.7 µM [inhibitor, single point]
32 | O=C(Nc1cccc(-c2cn3cccnc3n2)c1)Nc1ccccc1F | inconclusive: 18.5 µM [inhibitor, single point]
33 | COc1ccc(N2C(=O)/C(=C/c3ccco3)C(=O)NC2=S)cc1 | inconclusive: 9.28 µM [inhibitor, partial curve]
34 | O=C(c1ccccc1Cl)N(Cc1ccc(Cl)c(Cl)c1)N1C(=O)CCCC1=O | inactive
35 | CN(CC1COc2ccccc2O1)C(=O)c1cc(COc2c(F)cccc2F)on1 (stereo not drawn) | inconclusive: 14.7 µM [inhibitor, single point]
36 | CCOc1ccc(N2C(=O)CC(SC(=NC)Nc3cccc(F)c3)C2=O)cc1 (stereo not drawn) | inactive
37 | c1ccc(CCNc2nc3ccccc3n3nnnc23)cc1 | inconclusive: 13.1 µM [inhibitor, single point]
38 | Oc1ccc(-c2cnc(-c3ccc(O)cc3)nc2)cc1 | inactive
39 | COCCn1nnnc1C(c1cccs1)N1CCN(c2cc(C)ccc2C)CC1 (stereo not drawn) | inconclusive: 9.28 µM [inhibitor, single point]
40 | COc1ccccc1NC(=O)C1=C(C)NC(=O)NC1c1ccc(C)s1 (stereo not drawn) | active: 6.57 µM
41 | CN(CC(=O)Nc1ccc(Cl)c(C(F)(F)F)c1)C(=O)c1ccc(OCC2CCCO2)cc1 (stereo not drawn) | inconclusive: 14.7 µM [inhibitor, partial curve, poor fit]
42 | CCc1nc(SCc2ccc([N+](=O)[O-])cc2)n[nH]1 | inconclusive: 10.4 µM [inhibitor, single point]
43 | O=S(=O)(NCCc1ccccc1)c1ccccc1 | inactive

Among those listed so far, these contain an NH in an aromatic ring:
Row | SMILES | Potency
19 | CCN(CC)c1ccc(-c2n[nH]c(=S)n2-c2ccccc2)cc1 | inconclusive: 4.15 µM [inhibitor, full curve, poor fit]
42 | CCc1nc(SCc2ccc([N+](=O)[O-])cc2)n[nH]1 | inconclusive: 10.4 µM [inhibitor, single point]
